Assay [1] has as its target T1, O-linked N-acetylglucosamine (GlcNAc) transferase (pig (endogenous in porcine granulosa cells)) (UniProt Q27HV0).
T1 sequence: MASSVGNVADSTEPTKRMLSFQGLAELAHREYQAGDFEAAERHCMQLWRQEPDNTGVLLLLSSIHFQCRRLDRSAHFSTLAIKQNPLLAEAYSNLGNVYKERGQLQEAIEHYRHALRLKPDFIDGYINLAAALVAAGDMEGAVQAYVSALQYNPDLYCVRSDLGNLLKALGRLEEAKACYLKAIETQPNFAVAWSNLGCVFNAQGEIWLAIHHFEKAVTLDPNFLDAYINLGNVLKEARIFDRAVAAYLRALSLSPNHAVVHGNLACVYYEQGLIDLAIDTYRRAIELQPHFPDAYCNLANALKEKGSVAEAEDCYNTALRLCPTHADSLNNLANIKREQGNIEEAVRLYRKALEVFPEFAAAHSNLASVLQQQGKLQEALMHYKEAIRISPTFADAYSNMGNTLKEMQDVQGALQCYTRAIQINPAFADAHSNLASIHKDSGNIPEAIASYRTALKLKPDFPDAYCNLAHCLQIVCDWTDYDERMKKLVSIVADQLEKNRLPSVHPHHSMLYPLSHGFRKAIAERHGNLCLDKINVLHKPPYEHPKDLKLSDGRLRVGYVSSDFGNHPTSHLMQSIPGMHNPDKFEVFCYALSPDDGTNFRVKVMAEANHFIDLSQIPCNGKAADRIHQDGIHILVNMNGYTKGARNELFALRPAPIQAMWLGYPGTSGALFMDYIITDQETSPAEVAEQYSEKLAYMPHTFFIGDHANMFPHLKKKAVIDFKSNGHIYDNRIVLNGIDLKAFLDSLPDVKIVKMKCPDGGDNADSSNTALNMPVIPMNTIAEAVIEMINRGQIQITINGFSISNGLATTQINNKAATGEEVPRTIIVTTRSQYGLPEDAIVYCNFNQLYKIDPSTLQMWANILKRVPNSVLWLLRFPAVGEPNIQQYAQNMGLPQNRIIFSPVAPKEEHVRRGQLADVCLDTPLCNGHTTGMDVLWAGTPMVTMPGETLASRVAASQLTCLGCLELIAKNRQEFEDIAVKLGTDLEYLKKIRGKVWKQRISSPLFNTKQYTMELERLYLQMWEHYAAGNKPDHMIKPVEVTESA
The assay is described as follows: co-IP; endogenous proteins in whole-cell lysates of porcine granulosa cells under hypoxic conditions (1% O2), transfected with siNC, siHIF1A#1 or siHIF1A#3; antibody overnight at 4 °C, protein A/G magnetic beads, immunoblot. In general terms: A western blot detects proteins with antibodies after separation by electrophoresis.

For assay [2], the target named is vascular endothelial zinc finger 1 (pig (endogenous in porcine granulosa cells)). Described as above.

Results are given in words; binding and its absence hold for the method and conditions named. In cells and extracts the contact can be indirect. A result given as binding can be weak or reduced; the word gives no strength. Where a sequence is shown, tags or fusion partners need not be part of it.

For the molecule “beta-transducin repeat containing protein”, the binding result in assay [1] is “binds”.

B1: O-linked N-acetylglucosamine (GlcNAc) transferase (enzyme, UniProt Q27HV0 1-1046)
chain: T1 sequence
For B1, the binding entry in assay [2] is given as “binds”.

The record behind these values is publication PMC12449798.
